Assay results published in PubChem BioAssay AID493014 (National Center for Advancing Translational Sciences (NCATS), 2011).
Several values for one entry are separate records, joined by “and”; a condition that tells them apart may be missing. Equal entries are not always repeated. The list shows a part of the results. These are further read-outs of the screen, such as a control signal, another cell line or another target. No call is given for them. The list favours compounds with an active or inconclusive main result. Words in brackets tell the shape of the fitted curve; partial curves, single points and poor fits give uncertain potencies.

Test: qHTS Assay to Find Inhibitors of Chronic Active B-Cell Receptor Signaling
Details: ABC-DLBCL IkBa-CBG/CBR reporter, luminescence ratio (green luciferase fused to IkBa over red control in TMD8 lymphoma cells), 4 h
How it was run: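 TMD8 human ABC-DLBCL cells with doxycycline-inducible IκBα–green luciferase fusion and unfused red luciferase, in 0.5% FBS medium; compounds up to 46 uM, 4 h at 37C. Green/red luminescence ratio, filter-overlap corrected, fitted to concentration-response curves.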

[1] = measured here: CBR red luminescence, cell number
[2] = measured here: IkBa-CBG green luminescence

Structure (SMILES)	AC50 [1]	AC50 [2]
Cn1c(Sc2ccccc2Cl)c(C=O)c2ccccc21	5.01 µM [falling, single point]	–
COc1ccc(CNCC(=O)Nc2sccc2C#N)cc1	0.1 µM [rising, full curve, poor fit]	–
Nc1nonc1-n1nnc(C(=O)N/N=C/c2ccc(O)cc2)c1COc1ccc(F)cc1	22.4 µM [falling, single point]	35.5 µM [rising, partial curve, poor fit]
O=C1CCCC/C1=C/NCc1ccc(F)cc1	10 µM [rising, single point]	–
CC1CCC/C(=N\NC(=O)c2ccncc2)C1 (centres undefined)	3.66 µM [rising, single point]	–
O=C(CN1C(=O)S/C(=C/c2ccc(N3CCOCC3)cc2)C1=O)N1CCOCC1	2.91 µM [rising, full curve, poor fit]	–
Cc1ccc(OCCN2CCN(c3ncnc4sc(C)c(C)c34)CC2)cc1	9.2 µM [rising, single point]	–
COC(=O)c1sc(NC(=O)COc2ccc(C)cc2)nc1C	1.84 µM [falling, full curve]	–
NS(=O)(=O)OCCCCCc1ccccc1	2.82 µM [rising, full curve]	–
O=C(NCc1ccc(C(=O)O)cc1)OCc1ccccc1	17.8 µM [falling, single point]	–
Cc1csc2nc(SCC(=O)N3CCN(c4ccccc4)CC3)[nH]c(=O)c12	3.98 µM [rising, partial curve, poor fit]	–
Cc1cccc(C)c1Nc1nnc(SCC(=O)c2ccc(Br)s2)s1	18.4 µM [falling, single point]	–
COc1ccccc1N1CCN(C(=O)c2ccc(-c3nc4ccccc4s3)o2)CC1	29.1 µM [falling, single point]	–
Cc1ccccc1N=C1Nc2ccccc2CS1	4.47 µM [rising, single point]	–
CCc1ccc(-c2[nH]nc3nc(-c4ccc(OC)cc4)cc(C(=O)NCCCOC)c23)cc1	3.98 µM [rising, single point]	–
O=C(OCC(=O)N1CCOCC1)c1ccccc1SCC(=O)N1CCCC1	35.5 µM [rising, single point]	–
CC(Oc1ccccc1)C(=O)Nc1nnc(C2CCCCC2)s1 (centres undefined)	0.708 µM [rising, full curve, poor fit]	–
Cc1cc(C)c(S(=O)(=O)Cc2ccccc2)c(=O)[nH]1	5.62 µM [falling, single point]	–
O=C(CC1C(=O)NCCN1C/C=C/c1ccccc1)NCCc1cccnc1 (centres undefined)	22.4 µM [rising, single point]	–
COc1ccccc1NC(=O)CSc1nnnn1C1CCCC1	3.55 µM [falling, full curve]	–
Cc1c2c(nc3c(C)cccc13)OC(C)C2 (centres undefined)	20.6 µM [rising, single point]	10 µM [falling, partial curve, poor fit]

Structural class, the entries above containing a carbonyl joined to an NH by a bond outside any ring (nine)
Structure (SMILES)	AC50 [1]	AC50 [2]
COc1ccc(CNCC(=O)Nc2sccc2C#N)cc1	0.1 µM [rising, full curve, poor fit]	–
Nc1nonc1-n1nnc(C(=O)N/N=C/c2ccc(O)cc2)c1COc1ccc(F)cc1	22.4 µM [falling, single point]	35.5 µM [rising, partial curve, poor fit]
CC1CCC/C(=N\NC(=O)c2ccncc2)C1 (centres undefined)	3.66 µM [rising, single point]	–
COC(=O)c1sc(NC(=O)COc2ccc(C)cc2)nc1C	1.84 µM [falling, full curve]	–
O=C(NCc1ccc(C(=O)O)cc1)OCc1ccccc1	17.8 µM [falling, single point]	–
CCc1ccc(-c2[nH]nc3nc(-c4ccc(OC)cc4)cc(C(=O)NCCCOC)c23)cc1	3.98 µM [rising, single point]	–
CC(Oc1ccccc1)C(=O)Nc1nnc(C2CCCCC2)s1 (centres undefined)	0.708 µM [rising, full curve, poor fit]	–
O=C(CC1C(=O)NCCN1C/C=C/c1ccccc1)NCCc1cccnc1 (centres undefined)	22.4 µM [rising, single point]	–
COc1ccccc1NC(=O)CSc1nnnn1C1CCCC1	3.55 µM [falling, full curve]	–

(listing goes on)

Structure (SMILES)	AC50 [1]	AC50 [2]
CCOC(=O)c1c(C(C#N)C#N)cc(C)nc1C	35.5 µM [rising, partial curve, poor fit]	–
Cc1ccc(Cc2cnc(NC(=O)c3cccs3)s2)cc1	17.8 µM [falling, single point]	–
c1ccc(Nc2nc3ccccc3o2)cc1	23.1 µM [falling, single point]	–
COc1cccc(-c2nc(N3CCC(C)CC3)c3ccccc3n2)c1O	35.5 µM [rising, single point]	–
CCCCOc1ccc(N=Nc2ccc(N)nc2N)cn1	1 µM [rising, partial curve, poor fit]	–
O=c1c2c(c(-c3ccccc3)nn1Cc1ccccc1)CCCC2	14.1 µM [falling, single point]	–
O=C(CSc1nc2nc(-c3cccs3)cc(C(F)(F)F)c2c(=O)[nH]1)C(F)(F)F	0.0891 µM [falling, full curve, poor fit]	–
Cc1cc(/C=N/NC(=O)c2cccc(F)c2)c(C)n1-c1ccccc1	10 µM [falling, partial curve, poor fit]	–
Fc1cnc(N/N=C/c2ccc(-c3ccc(Br)cc3)o2)nc1N1CCOCC1	10 µM [falling, partial curve, poor fit]	–
COc1ccc(N=C2C(=O)Nc3c(C)cccc32)cc1	5.01 µM [rising, partial curve, poor fit]	–
COc1cccc(/C=N/Nc2nc(N3CCCC3)nc(N3CCCC3)n2)c1O	2 µM [falling, full curve]	–
CCN1CCN(CCNC(=O)CSCc2nc(-c3ccc(OC)c(OC)c3)oc2C)CC1	14.6 µM [rising, partial curve]	–
CC(=O)c1ccc2c(c1)CC(C)C(=O)N2C (centres undefined)	–	20.6 µM [falling, partial curve, poor fit]
CC[C@]12c3[nH]c4ccc(OC)cc4c3CCN1C(=O)C(CC(=O)NCC13CC4CC(CC(C4)C1)C3)C[C@@H]2C(=O)N1CCN(C(=O)C2CC2)CC1 (some centres undefined)	25.9 µM [falling, single point]	–
O=C(NOCc1ccccc1)c1ccccc1	20.6 µM [falling, single point] and 23.1 µM [falling, partial curve, poor fit]	–
CCCSc1nsc(NC(=O)C(c2ccccc2)c2ccccc2)n1	7.31 µM [falling, partial curve]	–
Nc1ccc(O)cc1C(=O)OCC(=O)C12CC3CC(CC(C3)C1)C2	11.2 µM [falling, partial curve]	–
Cn1c(Cl)c(/C=N/OC(=O)C(C)(C)C)c2ccccc21	11.2 µM [rising, partial curve, poor fit]	–
O=C(CSc1nc(-c2ccc(F)cc2)cs1)N1CCOCC1	2.06 µM [rising, partial curve, poor fit]	–
CCN(C(=O)c1cc2c(s1)-c1ccccc1S(=O)(=O)C2)c1cc(OC)ccc1OC	3.98 µM [falling, full curve]	–
O=C(NCCN1CCN(Cc2ccc([N+](=O)[O-])cc2)CC1)C(=O)Nc1ccccc1	25.9 µM [rising, single point]	–
